Source: PubChem BioAssay AID1347075 (National Center for Advancing Translational Sciences (NCATS), 2019)
Several values for one entry are separate records, joined by “and”; a condition that tells them apart may be missing. Identical values can stand only once. In all, about 400,000 compounds went through this assay and about 5,500 (1.4%) were called active. Inconclusive means that the source gave no clear call. Such entries were picked first, then a sample of the others. Calls follow the shape of the dose curve; as a rule, active = well fitted cell-killing curve with a large enough effect; inconclusive = small, poorly fitted or top-dose-only effect, or effect the other way; inactive = flat fitted curve, though single readings scatter. Where the call is inconclusive, the potency comes from a doubtful curve fit.
% is scaled to controls: 0 for no effect and ±100 for the full control effect; potency is read from the fitted curve at half-maximal effect.

Assay: qHTS assay for MDR1-selective chemotherapeutics: Primary screen using the parental adenocarcinoma cell KB-3-1; also: nearly all actives have a fitted effect of over 60% in size
Settings: KB-3-1 viability, CellTiter-Glo ATP luminescence, 72 h; activity change, negative = cytotoxic: at 46.1 µM (top of the series)
Method in brief: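 KB-3-1 cells, DMEM (no phenol red) + 10% FBS; compound by pin transfer, 72 h, 37 °C. Readout: CellTiter-Glo luminescence after 10 min. Data normalized, curve-fitted.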
In the case of `COc1ccc2[nH]c(=O)c(CN(C(C)=O)c3cc(C)ccc3C)cc2c1`, the Potency is reported as “inactive”.
In the case of `O=[N+]([O-])c1ccc(Cl)c(S(=O)(=O)Nc2cccc(-c3ccc(N4CCOCC4)nn3)c2)c1`, the Potency is reported as “inactive”.
With `O=C(O)/C=C/C(=O)Nc1ccc(OC(F)(F)F)cc1Br` the Potency was “inactive”.
In the case of `CCCCN(CC)S(=O)(=O)c1ccc(C(=O)N=c2sc3cc(NC(C)=O)ccc3n2C)cc1`, the Potency is reported as inconclusive: 29.1 µM [cytotoxic, single point].
For `CCOC(=O)c1csc(NC(=O)C2=COCCO2)n1`, the Potency was “inactive”.
With `Cc1ccc(OC/C(O)=C(\C#N)c2nc3ccccc3s2)cc1` the Potency was inconclusive: 18.4 µM [cytotoxic, single point].
For `CCOC(=O)C1CCCN(Cc2nc(N)nc(Nc3ccccc3OC)n2)C1` (configuration not stated), the Potency was inconclusive: 10.3 µM [cytotoxic, partial curve, poor fit].
For `COC(=O)c1cc2cc(Cl)ccc2nc1SC`, the Potency was “inactive”.
With `CCS(=O)(=O)N1CCc2cc(C(=O)N3CCN(c4ccccc4)CC3)ccc21` the Potency was “inactive”.
In the case of `CCCCC(=O)Nc1cc(-c2nc3ccccc3o2)ccc1OC`, the Potency is reported as “inactive”.
In the case of `C[C@@]12C(=O)Nc3cc(F)ccc3C(=O)N1[C@H]1c3cc(Br)ccc3OC[C@@H]1[C@@H]2c1ccccc1`, the Potency is reported as inconclusive: 20.6 µM [cytotoxic, single point].
With `Cc1ccc(-c2ocnc2C(=O)Nc2ccccc2NC(=O)c2ccccn2)cc1` the Potency was inconclusive: 29.1 µM [cytotoxic, single point].
For `O=C(NC1CCCCCC1)c1c(O)nc2sccn2c1=O`, the Potency was inconclusive: 13 µM [cytotoxic, single point].
For `Cc1nc(C)c(CCNS(=O)(=O)c2ccc(C)c(C)c2)s1`, the Potency was inconclusive: 18.4 µM [cytotoxic, single point].
For `CC1=C(C(=O)OCc2ccccc2)C(c2ccc3ccccc3c2)NC(=O)N1CCCC(=O)O` (configuration not stated), the Potency was “inactive”.
With `CC(C)(C)C(=O)Nc1ccc(C(=O)CSc2nnc(C3CC3)n2C2CC2)cc1` the Potency was “inactive”.
In the case of `Cc1ccc(F)cc1NC(=O)COC(=O)C1CCN(c2ccc(C(F)(F)F)cn2)CC1`, the Potency is reported as “inactive”.
For `CCOc1ccc(OCCCCn2ccnc2)cc1`, the Potency was inconclusive: 29.1 µM [cytotoxic, single point].
With `CCOC(=O)c1c(NC(=O)CCl)sc(C(=O)N(CC)CC)c1C` the Potency was inconclusive: 29.1 µM [cytotoxic, single point].
In the case of `O=C(CCCCCn1c(=S)[nH]c2ccc(N3CCOCC3)cc2c1=O)NCc1ccc(Cl)cc1`, the Potency is reported as inconclusive: 13 µM [cytotoxic, partial curve, poor fit].
In the case of `COc1ccc(C2=CC(c3cc(OC)c(OC)c(OC)c3)NC(=S)N2)cc1` (configuration not stated), the Potency is reported as inconclusive: 20.6 µM [cytotoxic, single point].
With `COc1cccc(CN(C)C(=O)c2[nH]c(C)c(C(C)=O)c2C)c1OC` the Potency was active: 7.31 µM.
In the case of `CCCCn1c(N)c(N(CCOC)C(=O)C2CC(=O)N(c3cccc(SC)c3)C2)c(=O)[nH]c1=O` (configuration not stated), the Potency is reported as inconclusive: 29.1 µM [rising, single point].
For `COC(=O)c1ccc(C)c(NC(=O)Cn2c(C)csc2=O)c1`, the Potency was inconclusive: 0.0052 µM [cytotoxic, full curve, poor fit].
In the case of `CSc1nc(C)c(CCO)c(=O)[nH]1`, the Potency is reported as inconclusive: 0.184 µM [rising, full curve].
With `C=C[C@@H](C)N(Cc1ccc(OC)cc1)S(=O)(=O)N(Cc1ccccc1)[C@H](C=C)C(C)C` the Potency was inconclusive: 23.1 µM [cytotoxic, single point] and inconclusive: 29.1 µM [cytotoxic, single point].
With `CCN(CC)CC(O)c1ccc2ccc3ccc(O)cc3c2c1` (configuration not stated) the Potency was inconclusive: 0.206 µM [rising, full curve].
With `COc1cccc(NC(=O)c2oc3ccccc3c2NC(=O)COc2ccccc2C)c1` the Potency was “inactive”.
In the case of `CCOC(=O)[C@]12CCCC=C1N(Cc1cccc3ccccc13)C(=O)[C@H](CC(=O)NCC1CCCCC1)C2`, the Potency is reported as inconclusive: 23.1 µM [cytotoxic, single point].
With `CCCCCCCCCCCCCCCCCCNc1ccn(C2OC(COP(=O)(O)OCC3OC(n4cc(F)c(=O)[nH]c4=O)CC3O)C(O)C2O)c(=O)n1` (configuration not stated) the Potency was inconclusive: 16.4 µM [cytotoxic, single point].
With `CC(C)Nc1nc(NC(N)=S)nc(NC(C)(C)C)n1` the Potency was inconclusive: 25.9 µM [rising, single point].
With `Cc1cc(C)c(S(=O)(=O)NC2CCN(Cc3ccccc3)CC2)c(C)c1` the Potency was “inactive”.
In the case of `CCOC(=O)c1sc(NC(=O)CCSC)nc1C`, the Potency is reported as “inactive”.
With `COCCCNCC(=O)Nc1ccc(OC(F)(F)F)cc1` the Potency was “inactive”.
With `O=c1oc2ccccc2c(O)c1Cc1cc(Cl)c2cccnc2c1O` the Potency was active: 16.4 µM.
For `COCCCNCCOCCOc1ccc(C)cc1[N+](=O)[O-]`, the Potency was “inactive”.
For `O=C(CSc1nnc(CNc2ccccc2)o1)N1CCCc2ccccc21`, the Potency was “inactive”.
For `C(=N\Nc1nc(N2CCCC2)nc(N2CCCC2)n1)/c1cccnc1`, the Potency was “inactive”.
For `CN1CCN(c2ccc(-c3nc(-c4ccccc4)no3)cc2[N+](=O)[O-])CC1`, the Potency was “inactive”.
With `Cc1ccc(-c2nnc3c(C(F)(F)F)nc4ccccc4n23)cc1` the Potency was inconclusive: 16.4 µM [cytotoxic, single point].
With `Cc1cc(C(=O)N/N=C/c2c3ccccc3cc3ccccc23)n[nH]1` the Potency was inconclusive: 29.1 µM [cytotoxic, single point].
For `COC(=O)c1ccc(CSc2nccn2C)cc1`, the Potency was “inactive”.
For `O=C(NNC(=S)Nc1ccc(F)cc1)c1cccc([N+](=O)[O-])c1`, the Potency was “inactive”.
With `Cc1nc(SCc2nc3ccc(F)cc3[nH]2)c2oc3ccccc3c2n1` the Potency was inconclusive: 29.1 µM [cytotoxic, single point].
In the case of `CC(C)c1ccc(O)c(NC(=S)NC(=O)c2ccc3c(c2)OCO3)c1`, the Potency is reported as “inactive”.
For `CN(C)N1C(N)=C(C#N)C(c2cccc3ccccc23)C2=C1CC(c1ccccc1)CC2=O` (configuration not stated), the Potency was active: 13 µM.
In the case of `CC(C)C[C@@H](CN1CCC[C@@H]1CN1C(=S)NC[C@@H]1Cc1ccccc1)N1C[C@H](Cc2ccc(O)cc2)N(CC2CCCCCC2)C1=S`, the Potency is reported as inconclusive: 29.1 µM [cytotoxic, single point].
In the case of `CCCCN(CCCC)S(=O)(=O)c1ccc(NC(=O)c2ccc([N+](=O)[O-])cc2Cl)cc1`, the Potency is reported as inconclusive: 29.1 µM [cytotoxic, single point].
For `CCOC(=O)C1=C(C)N(Cc2ccccc2)C(=O)NC1c1ccccc1OS(=O)(=O)c1ccccc1[N+](=O)[O-]` (configuration not stated), the Potency was inconclusive: 13 µM [cytotoxic, partial curve].
For `O=C(Cn1c2c(sc1=O)C1c3ccccc3OCC1CS2)Nc1ccc(Cl)cc1` (configuration not stated), the Potency was inconclusive: 18.4 µM [cytotoxic, single point].
With `O=C(COc1ccc([N+](=O)[O-])cc1)NC(C(=O)O)C(O)c1cccc([N+](=O)[O-])c1` (configuration not stated) the Potency was inconclusive: 3.66 µM [rising, partial curve, poor fit].
In the case of `OC(COc1ccc(CN2CCCCO2)cc1)CN1CCCCC1` (configuration not stated), the Potency is reported as inconclusive: 0.206 µM [rising, full curve, poor fit].
In the case of `CC1(C)CC(=O)C2=C(C1)OC(N)=C([N+](=O)[O-])C2c1ccc(C#N)s1` (configuration not stated), the activity change, negative = cytotoxic is reported as inconclusive: 13.5%.
With `Cc1ccc(OCc2cc(C(=O)N3CCCC(C)C3)no2)cn1` (configuration not stated) the Potency was active: 20.6 µM.
In the case of `CCC(C)Sc1ccc([C@@H]2[C@@H]3C(=O)N(CC)C(=O)[C@@H]3[C@]3(C(=O)OC)CCCCN23)cc1` (some centres not stated), the Potency is reported as inconclusive: 29.1 µM [cytotoxic, single point].
In the case of `CCCC(=O)OCc1cnc(C)c2oc(=O)c(C(=O)Nc3ccc(F)cc3C)cc12`, the Potency is reported as “inactive”.
For `Cc1ccnc(NC(=O)c2cnc(Cl)c(Cl)c2)c1`, the Potency was inconclusive: 23.1 µM [rising, single point].
For `CC(C)=CCc1c(-c2ccc(O)cc2O)oc2c3c(cc(O)c2c1=O)OC(C)(C)C=C3`, the Potency was inconclusive: 29.1 µM [cytotoxic, single point].
In the case of `COc1ccc(C(=O)NC(=S)NNC(=O)c2ccccc2O)cc1`, the Potency is reported as inconclusive: 16.4 µM [cytotoxic, single point].
With `CC1CCN(C(=O)CS(=O)(=O)Cc2ccccc2)CC1` the activity change, negative = cytotoxic was inconclusive: 4.58%.
With `CCOC(=O)CCN(Cc1cccs1)S(=O)(=O)c1ccc(Cl)cc1` the Potency was “inactive”.
In the case of `COc1ccc(C2=NN(C)C(=NCc3ccccc3)SC2)cc1`, the Potency is reported as inconclusive: 29.1 µM [cytotoxic, single point].
In the case of `COc1ccccc1NC(=O)c1oc2ccccc2c1NC(=O)C1CC1`, the Potency is reported as inconclusive: 29.1 µM [cytotoxic, single point].
In the case of `Cc1ccc(C(c2cc(Cl)c3cccnc3c2O)N2CCN(C)CC2)cc1` (configuration not stated), the Potency is reported as inconclusive: 29.1 µM [cytotoxic, single point].
For `CCC(=O)N1N=C(c2cccs2)CC1c1ccc(OC)cc1` (configuration not stated), the activity change, negative = cytotoxic was inconclusive: 8.11%.
In the case of `COc1ccc(NC(=S)NC(=O)/C=C/c2ccco2)c(OC)c1`, the Potency is reported as “inactive”.
With `Cc1ccc(C(C)C)c(OCc2ccc(-c3nnco3)cc2)c1` the Potency was “inactive”.
In the case of `CCOC(=O)C1=C(C)OC(N)=C(C#N)C1c1cc(OC)c2c(c1)OCO2` (configuration not stated), the Potency is reported as inconclusive: 32.6 µM [rising, single point].
For `O=C(NCCSCc1c(F)cccc1Cl)Nc1ccccc1`, the Potency was “inactive”.
For `COc1cc(OC)cc(C(=O)NC(=S)Nc2ccc3[nH]c(=O)[nH]c3c2)c1`, the Potency was inconclusive: 7.31 µM [rising, partial curve, poor fit].
In the case of `OC(c1ccc(Cl)cc1)c1ncc(-c2ccccc2F)[nH]1` (configuration not stated), the Potency is reported as “inactive”.
In the case of `COc1cc(C2C3=C(CCCC3=O)Nc3[nH]n(-c4ccccc4)c(=O)c32)cc(OC)c1OC` (configuration not stated), the Potency is reported as “inactive”.
